According to article doi:10.1101/2021.03.11.435010:
Results are given in words; binding and its absence hold for the method and conditions named.

Amino acid sequences for entries named in this document (tags omitted). A change or cut given only in a name is not applied to a line headed by its entry.
UniProt P51948: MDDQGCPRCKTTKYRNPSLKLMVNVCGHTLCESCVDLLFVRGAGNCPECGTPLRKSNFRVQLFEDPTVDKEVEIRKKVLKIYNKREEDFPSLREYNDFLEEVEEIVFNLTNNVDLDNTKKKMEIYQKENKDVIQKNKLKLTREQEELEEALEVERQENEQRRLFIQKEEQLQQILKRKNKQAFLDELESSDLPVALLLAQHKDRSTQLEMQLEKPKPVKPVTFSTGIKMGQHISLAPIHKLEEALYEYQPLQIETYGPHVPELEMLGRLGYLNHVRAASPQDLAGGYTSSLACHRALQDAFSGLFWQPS
UniProt P51946: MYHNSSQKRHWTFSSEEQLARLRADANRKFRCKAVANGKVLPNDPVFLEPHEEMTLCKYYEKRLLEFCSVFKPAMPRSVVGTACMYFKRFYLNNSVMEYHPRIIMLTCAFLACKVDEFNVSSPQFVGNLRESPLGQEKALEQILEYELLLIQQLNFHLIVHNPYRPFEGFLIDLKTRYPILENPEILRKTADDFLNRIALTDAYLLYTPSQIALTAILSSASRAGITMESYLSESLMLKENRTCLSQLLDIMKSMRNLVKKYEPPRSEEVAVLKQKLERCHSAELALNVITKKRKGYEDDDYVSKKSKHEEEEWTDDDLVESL
UniProt O75586: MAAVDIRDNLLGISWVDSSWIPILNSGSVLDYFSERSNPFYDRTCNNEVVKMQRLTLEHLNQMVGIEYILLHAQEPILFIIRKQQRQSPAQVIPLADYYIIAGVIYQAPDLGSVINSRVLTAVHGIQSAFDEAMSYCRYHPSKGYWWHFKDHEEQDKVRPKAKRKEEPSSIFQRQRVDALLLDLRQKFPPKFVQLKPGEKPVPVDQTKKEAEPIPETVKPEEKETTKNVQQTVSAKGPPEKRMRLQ
UniProt Q96G25: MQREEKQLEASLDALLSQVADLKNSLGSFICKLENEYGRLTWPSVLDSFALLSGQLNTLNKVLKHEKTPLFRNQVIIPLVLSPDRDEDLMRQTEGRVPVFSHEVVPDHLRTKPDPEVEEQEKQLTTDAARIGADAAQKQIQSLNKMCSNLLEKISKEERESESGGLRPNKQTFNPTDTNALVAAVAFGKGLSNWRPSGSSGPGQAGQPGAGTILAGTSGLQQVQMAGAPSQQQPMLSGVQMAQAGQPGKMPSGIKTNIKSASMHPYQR
UniProt Q9P086: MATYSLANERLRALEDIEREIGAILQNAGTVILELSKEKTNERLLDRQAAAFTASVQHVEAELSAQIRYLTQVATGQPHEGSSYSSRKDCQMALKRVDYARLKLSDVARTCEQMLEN
UniProt Q9NVC6: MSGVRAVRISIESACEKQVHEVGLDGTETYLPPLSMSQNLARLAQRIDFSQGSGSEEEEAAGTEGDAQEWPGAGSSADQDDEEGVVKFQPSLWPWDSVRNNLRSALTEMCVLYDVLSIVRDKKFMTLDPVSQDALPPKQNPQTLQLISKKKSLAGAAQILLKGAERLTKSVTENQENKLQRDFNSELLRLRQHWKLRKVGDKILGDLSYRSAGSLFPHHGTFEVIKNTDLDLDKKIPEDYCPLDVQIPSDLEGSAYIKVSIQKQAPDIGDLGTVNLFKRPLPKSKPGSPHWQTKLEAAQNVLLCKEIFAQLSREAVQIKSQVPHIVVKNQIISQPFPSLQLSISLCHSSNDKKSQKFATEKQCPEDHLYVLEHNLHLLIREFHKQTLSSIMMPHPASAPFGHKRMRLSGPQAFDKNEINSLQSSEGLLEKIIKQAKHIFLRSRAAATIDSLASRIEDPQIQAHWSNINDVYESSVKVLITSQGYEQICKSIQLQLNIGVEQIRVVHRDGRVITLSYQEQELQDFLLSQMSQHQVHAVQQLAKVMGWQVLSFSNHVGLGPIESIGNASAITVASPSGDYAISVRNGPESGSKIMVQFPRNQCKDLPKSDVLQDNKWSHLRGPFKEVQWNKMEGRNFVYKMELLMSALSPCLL
UniProt Q9BUE0: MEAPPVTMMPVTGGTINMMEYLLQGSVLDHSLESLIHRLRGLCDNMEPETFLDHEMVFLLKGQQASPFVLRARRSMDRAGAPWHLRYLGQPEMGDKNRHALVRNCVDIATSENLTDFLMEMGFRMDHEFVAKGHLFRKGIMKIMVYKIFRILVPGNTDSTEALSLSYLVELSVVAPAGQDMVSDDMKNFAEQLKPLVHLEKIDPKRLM
UniProt Q9H944: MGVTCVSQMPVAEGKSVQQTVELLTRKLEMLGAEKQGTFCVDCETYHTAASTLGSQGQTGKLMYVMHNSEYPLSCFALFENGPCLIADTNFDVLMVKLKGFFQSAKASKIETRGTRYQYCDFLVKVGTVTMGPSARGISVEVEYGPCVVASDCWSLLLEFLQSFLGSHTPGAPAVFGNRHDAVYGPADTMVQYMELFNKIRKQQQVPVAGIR
UniProt Q15528: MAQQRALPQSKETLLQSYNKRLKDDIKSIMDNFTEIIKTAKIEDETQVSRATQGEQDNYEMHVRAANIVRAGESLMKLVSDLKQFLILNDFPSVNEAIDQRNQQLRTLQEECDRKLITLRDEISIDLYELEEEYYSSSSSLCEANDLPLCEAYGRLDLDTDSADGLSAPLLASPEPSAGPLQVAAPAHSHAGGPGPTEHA
UniProt O95402: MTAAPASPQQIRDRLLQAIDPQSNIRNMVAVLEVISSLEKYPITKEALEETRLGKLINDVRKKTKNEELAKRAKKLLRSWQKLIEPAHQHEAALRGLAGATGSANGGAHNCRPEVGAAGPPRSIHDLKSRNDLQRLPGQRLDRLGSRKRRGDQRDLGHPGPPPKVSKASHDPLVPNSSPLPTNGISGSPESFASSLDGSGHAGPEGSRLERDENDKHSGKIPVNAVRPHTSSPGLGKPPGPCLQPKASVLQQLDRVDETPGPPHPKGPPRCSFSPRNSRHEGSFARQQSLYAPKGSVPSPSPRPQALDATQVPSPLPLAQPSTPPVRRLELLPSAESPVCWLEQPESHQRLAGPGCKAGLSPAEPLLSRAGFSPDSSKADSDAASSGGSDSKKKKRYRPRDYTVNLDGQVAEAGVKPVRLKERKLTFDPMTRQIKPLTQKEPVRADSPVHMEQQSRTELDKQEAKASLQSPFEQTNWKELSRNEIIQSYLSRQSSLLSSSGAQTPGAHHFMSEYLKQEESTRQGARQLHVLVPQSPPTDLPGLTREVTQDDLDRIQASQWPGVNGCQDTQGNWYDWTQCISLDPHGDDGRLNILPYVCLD
UniProt Q6P2C8: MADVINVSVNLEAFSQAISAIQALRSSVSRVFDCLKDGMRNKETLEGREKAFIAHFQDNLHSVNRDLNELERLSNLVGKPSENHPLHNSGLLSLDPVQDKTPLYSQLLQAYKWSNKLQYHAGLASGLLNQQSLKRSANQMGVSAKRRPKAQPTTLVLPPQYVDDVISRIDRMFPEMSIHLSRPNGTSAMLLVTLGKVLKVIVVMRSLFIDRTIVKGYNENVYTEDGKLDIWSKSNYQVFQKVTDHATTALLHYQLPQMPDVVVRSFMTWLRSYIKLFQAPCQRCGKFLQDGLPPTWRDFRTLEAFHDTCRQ
UniProt Q9H204: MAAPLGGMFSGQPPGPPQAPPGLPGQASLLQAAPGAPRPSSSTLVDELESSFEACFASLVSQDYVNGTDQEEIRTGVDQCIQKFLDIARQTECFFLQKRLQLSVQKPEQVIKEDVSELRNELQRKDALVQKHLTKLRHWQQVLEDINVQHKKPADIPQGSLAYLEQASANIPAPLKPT
UniProt Q9NX70: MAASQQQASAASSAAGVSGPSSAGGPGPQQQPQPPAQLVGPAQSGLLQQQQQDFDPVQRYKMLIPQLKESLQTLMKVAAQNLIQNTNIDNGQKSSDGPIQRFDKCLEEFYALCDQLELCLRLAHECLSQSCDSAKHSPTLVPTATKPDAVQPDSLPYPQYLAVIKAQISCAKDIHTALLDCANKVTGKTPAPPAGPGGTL
UniProt Q96HR3: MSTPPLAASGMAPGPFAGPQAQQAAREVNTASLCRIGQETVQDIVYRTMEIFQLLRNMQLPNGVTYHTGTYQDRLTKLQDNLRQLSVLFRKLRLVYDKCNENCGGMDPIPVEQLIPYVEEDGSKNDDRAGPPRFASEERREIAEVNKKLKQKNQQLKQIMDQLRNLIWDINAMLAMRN
UniProt O43513: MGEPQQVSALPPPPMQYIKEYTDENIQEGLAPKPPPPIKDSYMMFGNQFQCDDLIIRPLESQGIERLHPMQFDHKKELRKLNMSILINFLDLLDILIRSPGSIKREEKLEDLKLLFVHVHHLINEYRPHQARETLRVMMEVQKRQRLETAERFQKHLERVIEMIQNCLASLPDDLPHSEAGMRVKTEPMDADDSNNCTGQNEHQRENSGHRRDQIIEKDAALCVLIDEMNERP
UniProt Q9NWA0: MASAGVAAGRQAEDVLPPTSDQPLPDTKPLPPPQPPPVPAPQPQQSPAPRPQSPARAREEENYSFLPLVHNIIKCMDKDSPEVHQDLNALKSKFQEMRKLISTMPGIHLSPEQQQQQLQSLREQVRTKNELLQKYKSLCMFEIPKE
UniProt Q9BTT4: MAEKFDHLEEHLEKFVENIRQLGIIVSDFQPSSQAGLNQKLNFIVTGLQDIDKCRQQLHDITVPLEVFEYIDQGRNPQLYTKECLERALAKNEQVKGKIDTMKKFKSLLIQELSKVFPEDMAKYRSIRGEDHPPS
UniProt O60244: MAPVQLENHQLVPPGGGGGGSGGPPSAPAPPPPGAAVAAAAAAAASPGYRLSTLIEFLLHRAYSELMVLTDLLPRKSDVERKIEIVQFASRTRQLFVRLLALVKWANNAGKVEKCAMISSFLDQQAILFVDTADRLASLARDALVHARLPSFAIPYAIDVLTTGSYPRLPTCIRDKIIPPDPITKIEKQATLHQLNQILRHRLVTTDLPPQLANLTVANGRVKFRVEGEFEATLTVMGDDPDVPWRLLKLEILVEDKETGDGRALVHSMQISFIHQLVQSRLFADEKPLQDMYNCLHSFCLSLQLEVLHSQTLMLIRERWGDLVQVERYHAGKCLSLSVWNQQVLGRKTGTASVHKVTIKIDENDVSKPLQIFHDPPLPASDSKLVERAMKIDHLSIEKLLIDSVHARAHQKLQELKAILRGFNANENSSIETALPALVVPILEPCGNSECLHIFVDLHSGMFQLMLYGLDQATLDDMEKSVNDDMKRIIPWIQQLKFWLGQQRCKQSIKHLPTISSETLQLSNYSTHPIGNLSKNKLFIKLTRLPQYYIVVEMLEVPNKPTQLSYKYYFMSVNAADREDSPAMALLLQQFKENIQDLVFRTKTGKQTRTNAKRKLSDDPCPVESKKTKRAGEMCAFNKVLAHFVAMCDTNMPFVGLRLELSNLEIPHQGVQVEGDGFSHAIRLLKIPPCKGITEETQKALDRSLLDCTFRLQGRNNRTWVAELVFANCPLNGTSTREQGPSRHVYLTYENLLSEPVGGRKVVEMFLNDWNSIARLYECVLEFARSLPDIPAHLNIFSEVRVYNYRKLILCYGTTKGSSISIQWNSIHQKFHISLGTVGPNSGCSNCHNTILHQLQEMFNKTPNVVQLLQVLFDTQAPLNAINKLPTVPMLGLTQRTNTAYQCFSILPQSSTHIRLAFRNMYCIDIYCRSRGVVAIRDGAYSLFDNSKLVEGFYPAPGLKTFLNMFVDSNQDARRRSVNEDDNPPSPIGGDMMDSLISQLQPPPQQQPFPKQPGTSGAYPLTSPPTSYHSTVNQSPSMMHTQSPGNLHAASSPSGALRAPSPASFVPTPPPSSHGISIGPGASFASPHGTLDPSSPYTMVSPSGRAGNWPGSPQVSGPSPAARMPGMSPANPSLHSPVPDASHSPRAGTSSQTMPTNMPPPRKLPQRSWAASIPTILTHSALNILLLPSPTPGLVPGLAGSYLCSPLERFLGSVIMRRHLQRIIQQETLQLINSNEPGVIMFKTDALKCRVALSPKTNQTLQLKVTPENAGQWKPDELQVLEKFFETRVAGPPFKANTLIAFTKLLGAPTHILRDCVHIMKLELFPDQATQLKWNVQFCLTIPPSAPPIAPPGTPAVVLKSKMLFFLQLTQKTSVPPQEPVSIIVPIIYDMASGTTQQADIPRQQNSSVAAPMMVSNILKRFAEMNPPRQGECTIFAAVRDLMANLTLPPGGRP
UniProt A0JLT2: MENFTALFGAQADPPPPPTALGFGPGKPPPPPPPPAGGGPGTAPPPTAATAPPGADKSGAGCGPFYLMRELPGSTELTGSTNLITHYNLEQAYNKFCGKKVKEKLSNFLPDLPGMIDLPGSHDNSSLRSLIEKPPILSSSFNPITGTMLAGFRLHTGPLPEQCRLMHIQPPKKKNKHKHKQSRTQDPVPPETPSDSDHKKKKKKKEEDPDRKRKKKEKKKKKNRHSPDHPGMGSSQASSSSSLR
UniProt Q13503: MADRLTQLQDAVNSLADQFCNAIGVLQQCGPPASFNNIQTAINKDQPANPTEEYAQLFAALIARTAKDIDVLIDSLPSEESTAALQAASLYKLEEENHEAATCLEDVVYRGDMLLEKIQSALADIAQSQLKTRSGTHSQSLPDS
UniProt Q9Y3C7: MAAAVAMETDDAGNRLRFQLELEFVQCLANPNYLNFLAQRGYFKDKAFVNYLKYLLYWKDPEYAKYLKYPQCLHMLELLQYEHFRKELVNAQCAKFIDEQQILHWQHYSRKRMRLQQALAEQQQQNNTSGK

Columns and labels:
[1] = biological target: MAT1 (human) (UniProt P51948); test: cryo-EM structure
[2] = biological target: cyclin H (human) (UniProt P51946); test: cryo-EM structure

binding [1]: no binding
binding [2]: no binding
Substance: 20-subunit recombinant human Mediator (from UniProt O75586;Q96G25;Q9P086;Q9NVC6;Q9BUE0;Q9H944;Q15528;O95402;Q6P2C8;Q9H204;Q9NX70;Q96HR3;Q9NPJ6;O43513;Q9NWA0;Q9BTT4;O60244;A0JLT2;Q13503;Q9Y3C7) (complex)
